Experimental data taken from PMC7281150, “Inspired by Sea Urchins: Warburg Effect Mediated Selectivity of Novel Synthetic Non-Glycoside 1,4-Naphthoquinone-6S-Glucose Conjugates in Prostate Cancer” (Marine Drugs, 2020).

Test system: 22Rv1 cells
Test: Proteomics (LC-MS/MS, DIA) of treated cells
Format: cell-based, human
Conditions: 22Rv1, 2 µM, 48 h

Substance: 6-(1,2,3,4-Tetra-O-acetyl-6-deoxy-β-D-glucopyranos-6-ylthio)-5,8-dihydroxy-7-methyl-2,3-dimethoxy-1,4-naphthoquinone [SAB-13]
- number of downregulated proteins: 149 proteins
- number of upregulated proteins: 104 proteins
- number of significantly regulated proteins (1.5 ≤ fold change ≤ 1/1.5, p ≤ 0.05) (2163 proteins quantified): 253 proteins
